The series relates to preterm infants. The series can be described thus: indicator amino acid oxidation (IAAO) method: phenylalanine requirement in preterm infants. The series is classed as in vivo, human. From the text:
This example describes the determination of the requirements of the essential amino acid phenylalanine in preterm infants by way of the indicator amino acid oxidation (IAAO) method, and the subsequent definition of the recommended ranges of dietary requirements for this essential amino acid.
In the IAAO method, each infant was fed an amino acid based formula where each essential amino acid was present in excess except the test amino acid phenylalanine. The infant was randomly assigned to receive the test amino acid in an amount ranging from deficient to excess (i.e., each infant was given one specific intake level of the test amino acid for one test period). […]
The IAAO method (Zello, 1993) is based on the concept that when the test amino acid intake is insufficient to meet the infant's requirements, protein synthesis will be limited and all of the amino acids will be oxidised, including the indicator amino acid. Oxidation of the indicator amino acid can be measured in expired air as ^13CO2. […]
Breath samples were collected by means of the direct sampling method described by van der Schoor (2004). […] Expired ^13CO2 enrichment was measured by isotope mass spectrometry (ABCA; Europe Scientific, van Loenen Instruments, Leiden, the Netherlands), and reported in units of atom percent excess (APE). […]

On to `N[C@@H](Cc1ccccc1)C(=O)O` [phenylalanine], for which the “dietary requirement (breakpoint) for phenylalanine” value (16 preterm infants, 24 test intakes 5 to 177 mg/kg/d, [1-13C]lysine indicator oxidation, biphasic linear regression crossover model) came to 80 mg/kg/day. The compound also registered a Breakpoint (preterm infants, Table 1) of 80 mg/kg/day.

These data come from patent US20170105445A1, “ENTERAL FORMULATIONS FOR PRETERM INFANTS COMPRISING OPTIMISED PHENYLALANINE INTAKE LEVELS” (N.V. Nutricia, priority 2014, published 2017).
